For the series, the system named is T1, LdtRSmc.
T1 sequence (looked up): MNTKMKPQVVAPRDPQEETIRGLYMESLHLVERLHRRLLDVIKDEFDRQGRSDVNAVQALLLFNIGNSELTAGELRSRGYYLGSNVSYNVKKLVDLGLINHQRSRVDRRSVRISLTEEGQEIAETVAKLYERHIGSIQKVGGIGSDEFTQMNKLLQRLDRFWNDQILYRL
The experiment in a line: EMSA. The settings on record: EMSA: 50 mM Tris-HCl pH 7.2, 150 mM KCl, 10 mM MgCl2, 0.01% Triton X-100, 12.5 ng/uL each poly(dI-dC) and poly(dA-dT), 1 ng probe in 20 uL, 20 min at 37 C; recombinant protein; residues 1-170; protein details: N-terminal His6 removed by TEV; label: 5' biotin; probe letters rebuilt from the primers and the genome. For orientation: A gel shift assay detects complexes by their altered migration in electrophoresis.

Protein sequences can lack the tags named with them.

Consider “ACCACGGATGGTTTCTTCCTGCGGGTCTCTGGGCGCAACAACCTGCGGCTTCATCTTGGTGTTCATTTTCGTGCCTCACTGTTTCGTTTGGCGGTGTCTCTTTGTCTTCCCGCCTTGAGTGAGACCCTATCGAATACGTATAAAATTCTACTTAAACCGCAGCCTTAACATGAACTTACCGCGGACCGAGCCTGTCTCAGGGTGAATCAACCCTTACCTTCCGCACCTGGCGCAGTCGCTGATAGAGCAGCGCGGCCCGGAAAAGCACGAAGGTGACGGCGACGGATCCGTGGAGCACGATCAGCAAC (double strand) [PldtRSmc]”, for which the binding result is “binds”.
Turning to “CGCGAGAAAGCATCAATTCCGTTCTTTTTCGACATAGTCCCACCGTCTCAATGCGCCAGAAGCGCGCTGCCCGAGCCCTAAAGCGCATAACGCGATGCGCTTTACGTCTTTGCATTCATGCAAGTCGCGTCCCAAAACCGATGTGCGCTTTTGGGCGACATGCATTAGCACGGTCATGGTTAACAAAGGTAAACCCCCGTGCCACCCGGCCCTCAAATCGCTTCACGTTCCCGCGAACAGAGCCGCCCCGGCAGGCGAGCCGCGCAACCGACCTCCGCCATATGGACGTAATCGCGCACCTACCGCACCCAAGCGTCGCTGTCACAGCAATATGGCCAATTCGTGTCTGCGCGCCGCCGGCGGGGCGCAGCGCTGCAACTACATGGCGCGAAAAGCAGCAAAGGTCGGACACGCAGGGATTGCGCCCGACCCTTGAGACTGAAGGTAAACCCGCC (double strand) [PldtPSmc]”, the binding result is reported as “binds”.

These data come from publication PMC3999280.
